The target in the assay is T1, HA-tagged wild-type E. histolytica methionine aminopeptidase 2 (Entamoeba histolytica) (UniProt C4LWW4).
T1 sequence: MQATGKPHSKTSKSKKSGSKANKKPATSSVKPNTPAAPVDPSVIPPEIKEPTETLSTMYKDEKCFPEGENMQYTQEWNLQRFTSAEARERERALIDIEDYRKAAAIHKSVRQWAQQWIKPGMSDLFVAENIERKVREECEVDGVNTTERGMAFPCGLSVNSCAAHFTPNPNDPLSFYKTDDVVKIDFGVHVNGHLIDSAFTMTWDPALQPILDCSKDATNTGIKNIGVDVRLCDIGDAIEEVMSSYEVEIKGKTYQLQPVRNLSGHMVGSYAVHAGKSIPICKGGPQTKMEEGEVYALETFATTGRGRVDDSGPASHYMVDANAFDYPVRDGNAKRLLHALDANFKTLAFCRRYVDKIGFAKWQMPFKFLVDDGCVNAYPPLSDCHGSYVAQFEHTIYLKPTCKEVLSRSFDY
In words: affinity purification with mass spectrometry; HA-EhMetAP2 expressing amoebae treated with DSP cross-linker, lysed (50 mM Tris-HCl pH 7.5, 150 mM NaCl, 1% Triton X-100); anti-HA (clone HA-7) agarose beads, 4°C, 3.5 hours; eluate by SDS-PAGE and LC-MS/MS.

No constants are given. Whether binding was seen depends on the method and setting. In cells and extracts the contact can be indirect. These calls come from enrichment with a bait or labelling near it, and not all partners need be listed. No binding means not detected with the bait. Tags and fused reporters may be left off the sequences shown.

B1: E. histolytica patatin family phospholipase A (enzyme, UniProt C4M3X9 1-625)
chain: MNINQQQDLFALLINKYINTEMNTKTAIKSLDDLRQFPIQTSPQFIRIIQEACKQGNFEVLQYFCEKFPSFIDQPNVQGETPLFIATAYNKLEIAEYLIKHGASTNHLLPTGDSYLHWIAASPPSSLKNSIINGVIAKYPEIVKTNNIIQETPMHIAALAGDIDVVNKLIECGGQPTDKTIRCIDVYGYAQASGNKELMDLLKPLCKKDQIIQEQKLMGIAGYAISRPDSSSLPSSNSNSSTNDTISDNEDTFNIECIELDPNEDTTVEGLYKKYQTYNLPKQSKLKKFMNKIVKYPSINQFKRETMVLIKEAFLSRRMMEQPNKYGKGKKYRIISLDGGGIKVLMEVILLQRLSAEFPDMFVNCNLFCGCSASSVVAVTLSMGYNLDGLMKLIEHVIRYSFKKDSIQSVTNSKYINDYLRAFGEVAFGNLKLHDLPRHVLIPSFLIDSGIDSETRHCKSEAFNNIIPGNDTEKVADVCLRSAAAPSYYKPYQNYVDGGIVDNVPCGVAWPYLIGAKGIGIDPKDIVCLSLSAGRPTPAHLDAQKIGNGGLVQWAPVLADLFMLARRDETVKEGKLLFGERFLRVDPILPGQILLDNVEQIEEVKRIAQSYDLEEIRKWMREYWE
As to B1, the binding result was “no binding”.

Values taken from publication PMC10648944, “Fumagillin inhibits growth of the enteric protozoan parasite Entamoeba histolytica by covalently binding to and selectively inhibiting methionine aminopeptidase 2” (Antimicrobial Agents and Chemotherapy, 2023).
